The values that follow come from the supplement of paper PMC7666118.

By UniProt entry, the sequences of proteins in these tests, tags left out. Where a name states a change or a piece, a line headed by the entry shows the natural chain unless it says otherwise.
UniProt O15031: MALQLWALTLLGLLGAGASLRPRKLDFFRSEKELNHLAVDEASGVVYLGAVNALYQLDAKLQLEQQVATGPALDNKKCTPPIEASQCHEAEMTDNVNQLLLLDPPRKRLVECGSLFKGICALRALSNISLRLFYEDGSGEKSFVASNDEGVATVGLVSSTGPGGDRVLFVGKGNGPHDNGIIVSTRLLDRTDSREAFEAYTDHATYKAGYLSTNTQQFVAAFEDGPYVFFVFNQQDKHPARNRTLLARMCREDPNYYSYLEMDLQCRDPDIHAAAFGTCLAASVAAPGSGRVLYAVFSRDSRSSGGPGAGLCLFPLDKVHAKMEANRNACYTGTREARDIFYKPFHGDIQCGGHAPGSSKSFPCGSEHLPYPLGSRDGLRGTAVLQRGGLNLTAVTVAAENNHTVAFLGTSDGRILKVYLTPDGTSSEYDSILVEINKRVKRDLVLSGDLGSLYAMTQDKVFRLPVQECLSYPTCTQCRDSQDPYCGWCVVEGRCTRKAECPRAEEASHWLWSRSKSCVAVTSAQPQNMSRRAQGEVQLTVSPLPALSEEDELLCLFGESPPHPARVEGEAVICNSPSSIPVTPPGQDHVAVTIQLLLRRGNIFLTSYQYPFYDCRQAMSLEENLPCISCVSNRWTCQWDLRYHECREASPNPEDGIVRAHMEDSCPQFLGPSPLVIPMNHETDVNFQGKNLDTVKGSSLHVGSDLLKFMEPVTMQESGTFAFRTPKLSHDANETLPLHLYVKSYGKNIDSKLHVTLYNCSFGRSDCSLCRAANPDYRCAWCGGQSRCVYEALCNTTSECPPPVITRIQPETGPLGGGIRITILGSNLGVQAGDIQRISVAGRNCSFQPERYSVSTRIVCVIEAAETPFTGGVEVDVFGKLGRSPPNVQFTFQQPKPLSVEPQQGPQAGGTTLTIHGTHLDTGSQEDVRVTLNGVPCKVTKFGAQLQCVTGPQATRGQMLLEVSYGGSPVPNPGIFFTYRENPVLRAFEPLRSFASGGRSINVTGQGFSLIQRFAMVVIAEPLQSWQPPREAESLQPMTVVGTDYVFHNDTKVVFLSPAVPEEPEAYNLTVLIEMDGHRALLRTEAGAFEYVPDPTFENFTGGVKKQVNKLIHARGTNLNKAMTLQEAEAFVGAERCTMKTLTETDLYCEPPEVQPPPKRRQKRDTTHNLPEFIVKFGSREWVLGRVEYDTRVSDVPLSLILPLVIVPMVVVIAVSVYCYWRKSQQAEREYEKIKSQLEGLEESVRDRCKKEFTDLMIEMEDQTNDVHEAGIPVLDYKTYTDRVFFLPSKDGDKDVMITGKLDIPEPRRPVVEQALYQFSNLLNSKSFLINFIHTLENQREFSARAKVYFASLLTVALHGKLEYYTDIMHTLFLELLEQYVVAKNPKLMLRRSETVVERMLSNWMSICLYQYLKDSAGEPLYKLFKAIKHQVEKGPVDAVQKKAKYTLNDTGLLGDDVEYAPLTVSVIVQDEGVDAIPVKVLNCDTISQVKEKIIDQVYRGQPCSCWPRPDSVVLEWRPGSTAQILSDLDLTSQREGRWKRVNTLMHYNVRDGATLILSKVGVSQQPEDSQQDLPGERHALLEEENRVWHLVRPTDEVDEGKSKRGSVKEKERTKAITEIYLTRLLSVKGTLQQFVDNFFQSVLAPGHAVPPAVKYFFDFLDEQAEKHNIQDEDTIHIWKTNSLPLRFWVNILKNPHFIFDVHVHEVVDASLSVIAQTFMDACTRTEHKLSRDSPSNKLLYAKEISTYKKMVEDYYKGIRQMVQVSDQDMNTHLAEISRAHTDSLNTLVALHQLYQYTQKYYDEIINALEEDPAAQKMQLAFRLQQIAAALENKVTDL
UniProt Q9H307: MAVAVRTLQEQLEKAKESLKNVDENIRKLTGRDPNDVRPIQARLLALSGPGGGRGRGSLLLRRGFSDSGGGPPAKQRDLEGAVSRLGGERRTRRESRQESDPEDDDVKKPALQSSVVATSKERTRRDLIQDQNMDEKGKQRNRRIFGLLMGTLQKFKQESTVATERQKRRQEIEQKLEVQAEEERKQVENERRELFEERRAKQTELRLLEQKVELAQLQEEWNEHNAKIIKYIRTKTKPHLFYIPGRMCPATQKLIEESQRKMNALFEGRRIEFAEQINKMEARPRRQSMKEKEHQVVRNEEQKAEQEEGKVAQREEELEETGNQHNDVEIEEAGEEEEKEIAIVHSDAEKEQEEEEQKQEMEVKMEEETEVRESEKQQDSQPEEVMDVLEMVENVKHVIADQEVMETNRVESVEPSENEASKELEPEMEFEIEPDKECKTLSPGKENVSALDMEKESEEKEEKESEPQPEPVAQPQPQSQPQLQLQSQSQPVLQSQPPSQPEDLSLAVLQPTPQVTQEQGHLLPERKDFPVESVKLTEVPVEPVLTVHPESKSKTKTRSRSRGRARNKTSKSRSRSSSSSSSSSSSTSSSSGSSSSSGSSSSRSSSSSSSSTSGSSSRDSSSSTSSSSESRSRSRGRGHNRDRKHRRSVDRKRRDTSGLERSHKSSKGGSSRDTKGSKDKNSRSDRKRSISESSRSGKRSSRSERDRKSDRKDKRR
UniProt P20618: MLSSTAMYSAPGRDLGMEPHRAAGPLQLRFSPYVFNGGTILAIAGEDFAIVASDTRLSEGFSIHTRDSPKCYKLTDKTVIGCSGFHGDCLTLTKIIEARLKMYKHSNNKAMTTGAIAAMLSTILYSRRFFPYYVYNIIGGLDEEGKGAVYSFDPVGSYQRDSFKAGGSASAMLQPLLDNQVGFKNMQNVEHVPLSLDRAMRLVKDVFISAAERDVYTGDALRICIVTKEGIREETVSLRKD
UniProt Q9H237: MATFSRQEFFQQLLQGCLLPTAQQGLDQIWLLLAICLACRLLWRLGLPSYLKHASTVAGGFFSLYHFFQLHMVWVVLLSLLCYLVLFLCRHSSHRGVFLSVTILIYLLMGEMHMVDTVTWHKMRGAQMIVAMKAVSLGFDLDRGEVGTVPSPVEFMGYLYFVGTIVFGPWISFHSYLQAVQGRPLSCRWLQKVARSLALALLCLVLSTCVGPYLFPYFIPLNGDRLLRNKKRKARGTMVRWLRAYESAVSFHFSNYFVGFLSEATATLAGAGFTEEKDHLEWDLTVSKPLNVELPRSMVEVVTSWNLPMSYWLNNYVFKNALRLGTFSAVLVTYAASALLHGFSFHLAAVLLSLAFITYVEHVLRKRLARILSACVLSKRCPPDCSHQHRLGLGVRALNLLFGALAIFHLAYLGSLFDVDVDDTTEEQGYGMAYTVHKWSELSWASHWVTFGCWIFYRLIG
UniProt O14818: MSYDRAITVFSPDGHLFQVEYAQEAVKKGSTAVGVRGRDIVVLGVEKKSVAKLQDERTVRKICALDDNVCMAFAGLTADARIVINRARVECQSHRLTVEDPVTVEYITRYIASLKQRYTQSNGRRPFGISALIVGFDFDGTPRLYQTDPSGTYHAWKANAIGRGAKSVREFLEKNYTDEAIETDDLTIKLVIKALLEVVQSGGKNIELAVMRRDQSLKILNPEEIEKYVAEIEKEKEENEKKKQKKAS
UniProt Q92871: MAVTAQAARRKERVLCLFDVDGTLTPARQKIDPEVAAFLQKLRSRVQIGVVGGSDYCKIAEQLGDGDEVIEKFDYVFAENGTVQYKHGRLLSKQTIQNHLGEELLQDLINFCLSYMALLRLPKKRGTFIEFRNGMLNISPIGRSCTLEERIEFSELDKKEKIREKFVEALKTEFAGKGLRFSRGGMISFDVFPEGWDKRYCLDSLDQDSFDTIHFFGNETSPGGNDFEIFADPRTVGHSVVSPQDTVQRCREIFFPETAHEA
UniProt O43172: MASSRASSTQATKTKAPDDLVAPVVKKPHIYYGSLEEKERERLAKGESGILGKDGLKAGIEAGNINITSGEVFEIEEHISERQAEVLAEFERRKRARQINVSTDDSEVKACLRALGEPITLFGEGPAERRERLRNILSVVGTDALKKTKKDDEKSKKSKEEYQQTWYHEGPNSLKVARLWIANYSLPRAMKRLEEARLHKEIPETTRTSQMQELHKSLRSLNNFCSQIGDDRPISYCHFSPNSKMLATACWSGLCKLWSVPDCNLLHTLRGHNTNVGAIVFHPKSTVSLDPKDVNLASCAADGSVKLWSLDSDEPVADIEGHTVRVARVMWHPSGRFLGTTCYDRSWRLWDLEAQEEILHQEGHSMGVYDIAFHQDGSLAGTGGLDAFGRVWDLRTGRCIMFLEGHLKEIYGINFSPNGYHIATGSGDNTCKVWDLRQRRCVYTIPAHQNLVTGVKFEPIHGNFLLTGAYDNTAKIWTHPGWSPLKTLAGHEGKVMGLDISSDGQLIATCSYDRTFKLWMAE
UniProt Q9NVS9: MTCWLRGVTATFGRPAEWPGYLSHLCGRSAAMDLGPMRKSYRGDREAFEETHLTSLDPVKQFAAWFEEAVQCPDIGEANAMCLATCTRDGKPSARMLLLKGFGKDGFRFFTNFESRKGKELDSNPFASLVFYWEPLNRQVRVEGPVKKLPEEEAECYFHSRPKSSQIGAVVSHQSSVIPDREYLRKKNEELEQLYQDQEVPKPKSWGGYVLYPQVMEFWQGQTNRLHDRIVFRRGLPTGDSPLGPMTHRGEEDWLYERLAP
UniProt Q9BZL6: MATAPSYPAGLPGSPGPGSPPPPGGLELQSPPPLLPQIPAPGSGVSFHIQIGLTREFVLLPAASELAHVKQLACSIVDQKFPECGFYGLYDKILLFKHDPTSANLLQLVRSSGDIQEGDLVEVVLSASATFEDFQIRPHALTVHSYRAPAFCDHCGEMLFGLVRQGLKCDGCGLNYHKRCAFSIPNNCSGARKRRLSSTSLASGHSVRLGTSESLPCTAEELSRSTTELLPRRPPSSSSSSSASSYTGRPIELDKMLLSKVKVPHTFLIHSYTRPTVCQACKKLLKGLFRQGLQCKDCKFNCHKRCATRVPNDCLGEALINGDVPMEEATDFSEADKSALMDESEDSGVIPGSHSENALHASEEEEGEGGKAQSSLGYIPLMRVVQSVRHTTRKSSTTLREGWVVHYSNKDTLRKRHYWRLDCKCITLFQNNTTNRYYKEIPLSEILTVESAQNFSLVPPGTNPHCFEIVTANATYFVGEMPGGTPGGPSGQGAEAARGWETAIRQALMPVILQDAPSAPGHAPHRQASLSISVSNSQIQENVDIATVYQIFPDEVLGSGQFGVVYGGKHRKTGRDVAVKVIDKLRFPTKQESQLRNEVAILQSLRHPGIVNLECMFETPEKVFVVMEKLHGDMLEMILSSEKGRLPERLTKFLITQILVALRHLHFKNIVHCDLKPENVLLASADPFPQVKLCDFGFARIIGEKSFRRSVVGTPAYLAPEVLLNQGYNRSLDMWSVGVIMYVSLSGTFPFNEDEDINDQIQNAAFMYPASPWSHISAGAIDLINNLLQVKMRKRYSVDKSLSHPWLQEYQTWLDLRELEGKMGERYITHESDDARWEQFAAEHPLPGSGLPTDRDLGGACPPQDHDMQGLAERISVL
UniProt Q8WY54: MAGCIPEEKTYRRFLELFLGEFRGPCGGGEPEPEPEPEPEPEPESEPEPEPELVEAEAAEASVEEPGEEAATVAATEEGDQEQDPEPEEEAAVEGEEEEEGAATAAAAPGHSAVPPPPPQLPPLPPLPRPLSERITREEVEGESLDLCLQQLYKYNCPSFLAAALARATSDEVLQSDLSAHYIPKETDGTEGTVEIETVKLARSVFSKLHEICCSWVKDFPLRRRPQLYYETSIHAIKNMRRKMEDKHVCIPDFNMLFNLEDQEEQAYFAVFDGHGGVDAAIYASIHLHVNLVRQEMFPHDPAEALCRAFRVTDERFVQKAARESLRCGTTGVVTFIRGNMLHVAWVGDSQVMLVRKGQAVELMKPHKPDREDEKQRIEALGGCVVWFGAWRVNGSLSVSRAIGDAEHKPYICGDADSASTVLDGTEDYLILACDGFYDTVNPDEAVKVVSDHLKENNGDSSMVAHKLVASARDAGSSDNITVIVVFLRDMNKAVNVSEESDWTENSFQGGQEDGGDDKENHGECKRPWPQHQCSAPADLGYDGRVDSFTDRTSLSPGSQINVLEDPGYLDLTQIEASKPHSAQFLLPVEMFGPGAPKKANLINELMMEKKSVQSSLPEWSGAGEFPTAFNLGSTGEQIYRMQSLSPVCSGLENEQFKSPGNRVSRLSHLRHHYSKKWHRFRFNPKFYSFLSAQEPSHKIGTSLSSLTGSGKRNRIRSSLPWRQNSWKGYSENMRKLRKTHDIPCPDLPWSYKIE
UniProt P05423: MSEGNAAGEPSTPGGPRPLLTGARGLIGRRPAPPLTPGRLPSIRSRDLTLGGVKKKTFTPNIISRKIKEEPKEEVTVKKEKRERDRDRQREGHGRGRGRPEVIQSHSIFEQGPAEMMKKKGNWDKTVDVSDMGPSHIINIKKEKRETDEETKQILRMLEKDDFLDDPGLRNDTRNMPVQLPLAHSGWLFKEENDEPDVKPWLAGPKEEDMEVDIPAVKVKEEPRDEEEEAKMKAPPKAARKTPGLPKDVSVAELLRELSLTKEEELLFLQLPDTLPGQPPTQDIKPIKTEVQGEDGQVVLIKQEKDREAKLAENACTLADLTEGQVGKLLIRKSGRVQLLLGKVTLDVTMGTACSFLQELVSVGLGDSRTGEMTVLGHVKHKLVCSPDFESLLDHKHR

Some of the results follow.

Compound in this test: COc1ccc(Cn2ccc3cc(C)c(C(=O)NO)cc32)cc1
The test can be described thus: dose-dependent thermal stabilisation call (2D-TPP, DLPTP, 10% FDR) (binary (1 = stabilised)); higher = stabilised by the compound. To be noted: system: HL-60 intact cells; concentration range 0.04-10 µM. The procedure: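 2D thermal proteome profiling in intact HL-60 cells treated with BRD-3811 (0, 0.04, 0.29, 2, 10 uM) for 90 min at 37 C, then heated 3 min at one of 12 temperatures (42-63.9 C). Soluble protein was quantified by TMT10 MS. The value is the DLPTP call of the paper: dose-dependent thermal stabilisation over all temperatures at 10% FDR (F-test of a dose-response against a flat model); one experiment, one call per tested protein.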
As for PLXNB2 (UniProt O15031), the “dose-dependent thermal stabilisation call” value was inactive: 0.
With POLA1 (UniProt P09884), the “dose-dependent thermal stabilisation call” value is inactive: 0.
With PNN (UniProt Q9H307) the figure was inactive: 0; with PPP5C (UniProt P53041), inactive: 0; with PSMB1 (UniProt P20618), inactive: 0.
With PSME1 (UniProt Q06323) the figure was inactive: 0; with PTMA (UniProt P06454), inactive: 0; with POLG2 (UniProt Q9UHN1), inactive: 0.
With POLR3G (UniProt O15318) the figure was inactive: 0; with PORCN (UniProt Q9H237), inactive: 0; with PSMA7 (UniProt O14818), inactive: 0.
In the case of PSMG3 (UniProt Q9BT73), the “dose-dependent thermal stabilisation call” value was inactive: 0.
As for PMM1 (UniProt Q92871), the “dose-dependent thermal stabilisation call” value is inactive: 0.
With POLE3 (UniProt Q9NRF9) the figure was inactive: 0; with PRPF4 (UniProt O43172), inactive: 0; with POP4 (UniProt O95707), inactive: 0.
For PNPO (UniProt Q9NVS9), the “dose-dependent thermal stabilisation call” value was inactive: 0.
Take PPP4R2 (UniProt Q9NY27): the “dose-dependent thermal stabilisation call” value was inactive: 0.
For PPP2R5C (UniProt Q13362) the value was inactive: 0; for PSAP (UniProt P07602), inactive: 0.
For PSMC1 (UniProt P62191) the value was inactive: 0; for PPFIA1 (UniProt Q13136), inactive: 0; for PRTN3 (UniProt P24158), inactive: 0.
For POMGNT1 (UniProt Q8WZA1) the value was inactive: 0.
On to PRKD2 (UniProt Q9BZL6), for which the “dose-dependent thermal stabilisation call” value is inactive: 0.
For PTPLAD2 (UniProt Q5VWC8) the value was inactive: 0; for PPM1E (UniProt Q8WY54), inactive: 0; for POLR3H (UniProt Q9Y535), inactive: 0.
With PNPLA8 (UniProt Q9NP80) the figure was inactive: 0.
For PPT2 (UniProt Q9UMR5) the value was inactive: 0.
As to PTDSS1 (UniProt P48651), the “dose-dependent thermal stabilisation call” value was inactive: 0.
For PRPF4B the value was inactive: 0; for POLR3D (UniProt P05423), inactive: 0.
For the target POLR2A (UniProt P24928), the “dose-dependent thermal stabilisation call” value was inactive: 0.
With PPP2R1A (UniProt P30153) the figure was inactive: 0.
With PSMC3 (UniProt P17980) the figure was inactive: 0.
